Measurements reported in patent US20120321697A1, “BPB-BASED CARGO DELIVERY SYSTEM” (GWANGJU INSTITUTE OF SCIENCE AND TECHNOLOGY, priority 2009, published 2012).
These are yes or no findings as the source states them, for the method shown.

Tests used:
Test in all cases: phage ELISA (anti-M13-HRP, absorbance at 450 nm), proteins coated at 5 µg/ml
Visfatin = target: Visfatin
Avidin = target: Avidin
CD7 = target: CD7
Myoglobin = target: Myoglobin
lysozyme = target: lysozyme

Binder	binding (Visfatin)	binding (Avidin)	binding (Myoglobin)	binding (lysozyme)	other results
HSHAFYGSWTWENGKWTWKGNPGWWT [Peptide 1 specific to MyD88]					binding (CD7): no binding
EASFWLGSWTWENGKWTWKGKGTLNR [Peptide 1 specific to nAchR]		no binding	no binding		
HCSSAVGSWTWENGKWTWKGIIRLEQ [Peptide 2 specific to fibronectin ED-B]	no binding		no binding	no binding	

Now from value to binder, other results behind:

binding (Visfatin)	binding (Avidin)	binding (Myoglobin)	binding (lysozyme)	Binder	other results
no binding				AASPYKGSWTWENGKWTWKGGWRMKM [Peptide 1 specific to HSA]	
	no binding			HANFFQGSWTWENGKWTWKGWKYNQS [Peptide 1 specific to VEGF]	
		no binding	no binding	QARDCTGSWTWENGKWTWKGPSICPI [Peptide 1 specific to VCAM1]	
